Test results reported in US9751851B2, “Molecules and compositions that inhibit gram negative bacteria and their uses” (THE TRUSTEES OF PRINCETON UNIVERSITY, priority 2013, dated 2017).
“And” between values parts separate entries of the source, which are not always exact repeats. Equal entries are not always repeated. Where two headings read alike, the source gives them in different places. The name of at least one read-out is uncertain. Some of these results come from one statement about several compounds together.

Tested on: wild-type P. aeruginosa PA14
Format: cell-based
Conditions: Table 3, reduction of pyocyanin vs WT P. aeruginosa PA14: 0% = WT level, 100% = background medium
Experimental: Methods. The oxidized form of pyocyanin imparts a green color to P. aeruginosa cultures, making the production of pyocyanin convenient to monitor by UV/Vis absorbance. Overnight P. aeruginosa cultures were subcultured into 5 mL fresh medium at 1:1000 dilution. Synthetic compounds were assayed at 100 μM for end point assays and at concentrations ranging from 200 nM to 200 μM for titrations following 17 hr of aerobic growth with shaking at 37° C. Cells were separated from culture fluids via centrifugation at 13,000 rpm for 15 min. Culture fluids were passed through 0.22 μm syringe driven filters (Millipore). Cell-free culture fluids were analyzed for pyocyanin using wavelength scans on a Beckman Coulter DU-800 spectrophotometer from 200 nm to 800 nm 695 nm was chosen for graphical representation. Titration data were fit with a variable-slope sigmoidal dose-response curve using GraphPad Prism to determine the IC50 values.
The compounds of the first library were assayed in wild-type (WT) P. aeruginosa PA14. Pyocyanin was used as a read-out for quorum sensing activity based on its absorbance at 695 nm. The efficacy of the compounds at reducing pyocyanin levels was calculated with respect to WT levels of pyocyanin, where WT levels of pyocyanin would lead to a 0% efficacy, and an absorbance equal to the background medium would lead to a 100% efficacy. Agonists that increase pyocyanin production have negative efficacy values.

| Structure (SMILES) | Efficacy (%) (listed as Table 3 entry 9) | Efficacy (%) (listed as drawing 67) | Efficacy (%) (listed as Table 3 entry 7) | Efficacy (%) (listed as drawing 65) |
| --- | --- | --- | --- | --- |
| COc1cc(NC(=O)COc2cccc(Br)c2)ccn1 [S48, 4-amino-2-methoxypyridine-C7-3-bromophenoxyhybrid] | 73-75% | 75 ± 3 | – | – |
| COc1cc(NC(=O)COc2cccc(Br)c2)ccn1 [S45, 4-amino-2-methoxypyridine-C6-3-bromophenoxyhybrid] | – | – | 73% and 73-75% | 73 ± 2 |
